# Measured values as given in publication PMC5996148.
# Some of the results follow.
# What was measured:
# Assay in all cases: protein microarray (ProtoArray v5.0), streptavidin-Alexa Fluor 647
# Conditions in all cases: 3'-biotin; 20 mM Tris (pH 7.5), 5 mM MgCl2, 100 mM KCl, 0.1% Tween-20, A/T-rich and random oligonucleotide blockers; temperature not stated; high values mean tight binding
# NXNL1 (human) = tested on: NXNL1 (human)
# NXNL2 (human) = tested on: NXNL2 (human)
# NY-SAR-48 (human) = tested on: NY-SAR-48 (human)
# [1] = tested on: Neuritin-like protein (human)
# [2] = tested on: Neurocalcin-delta (human)
# [3] = tested on: Neuropilin and tolloid-like protein 2 (human)
# Neuroplastin (human) = tested on: Neuroplastin (human)
# [4] = tested on: Neutral alpha-glucosidase AB (human)
# [5] = tested on: Non-imprinted in Prader-Willi/Angelman syndrome region protein 1 homolog (human)
# [6] = tested on: Nuclear transcription factor Y subunit beta (human)
# [7] = tested on: Nucleolar protein 11 (human)
# [8] = tested on: Nucleoporin Nup37 (human)
# Nucleoredoxin (human) = tested on: Nucleoredoxin (human)
# [9] = tested on: Nucleotide-binding protein 1 (human)
# OAS2 (human) = tested on: OAS2 (human)
# ODAM (human) = tested on: ODAM (human)
# ODF4 (human) = tested on: ODF4 (human)
# OGN (human) = tested on: OGN (human)
# OGT (human) = tested on: OGT (human)
# OPA1 (human) = tested on: OPA1 (human)
sequence,measurement,setting,value
GGGAGGCTGAGGCAGG [G4-1 biotinylated (PQS2)],binding signal,NXNL1 (human),-0.34 z-score
same,binding signal,NXNL2 (human),-0.287 z-score
same,binding signal,NY-SAR-48 (human),-0.337 z-score
same,binding signal,[1],-0.321 z-score
same,binding signal,[2],-0.355 z-score
same,binding signal,[3],-0.267 z-score
same,binding signal,Neuroplastin (human),-0.347 z-score
same,binding signal,[4],-0.303 z-score
same,binding signal,[5],-0.304 z-score
same,binding signal,[6],-0.278 z-score
same,binding signal,[7],-0.302 z-score
same,binding signal,[8],-0.308 z-score
same,binding signal,Nucleoredoxin (human),-0.309 z-score
same,binding signal,[9],-0.32 z-score
same,binding signal,OAS2 (human),-0.279 z-score
same,binding signal,ODAM (human),-0.343 z-score
same,binding signal,ODF4 (human),-0.316 z-score
same,binding signal,OGN (human),-0.339 z-score
same,binding signal,OGT (human),-0.368 z-score
same,binding signal,OPA1 (human),-0.285 z-score

# Quoted from the results shown for reference:
sequence,measurement,setting,value
GGGAGGCTGAGGCAGG [G4-1 biotinylated (PQS2)],binding signal,OGN (human),-0.339 z-score
same,binding signal,OGT (human),-0.368 z-score
